The values below come from publication PMC7755654.

The exact form of at least one protein or probe is not confirmed.

The target in the series is His6-Crp (cAMP receptor protein) (Shewanella putrefaciens CN32) (UniProt A0ABX8XCW1). Kind of series: DNase I footprinting. Particulars: 2 uM cAMP, 0.5 and 1.0 uM His6-Crp, protected -375 to -338, footprinting: 20 ul, 300 ng probe, 25 C 40 min, buffer not given, recombinant protein, residues 1-211, protein details: N-terminal His6 (pET-28a), label: 5'-FAM on forward strand, probe letters rebuilt from the primers and the genome.

For “GTAATAATGAACGGCTCGATTCTAGCACAGCGGGATTCTGCTGCAATGCGTTAACTCACATTTCAGGGAATGACAAGACCTCATATTTATCTCAATGAGATACCCATTGGCTATCAATGGAGAACAGTTTTGCCAACATTGATATTGGTTTATGTCGTATCAGGGTATCAACAAAGTGTGCCATCGATTACAATTTCACATTATGAAAATAACTTTGTAAAAAGGTAGGTTTGTTTTTGCAAATATTCGATAACTTGCGATTGTTTGATGATTGCATTAGCTTTAGTTGAAGTGCATAAATGCTCTGCTATAGGTCTGTTTTGACCAATTATTGTCCTGATAGTTAGAGCTAGGTCTCATTTTGCGCTTTTAAGTTTAATTTAATCGATAGATTTAGGCTTAGAATCAAATTTCTAATAAGTGAAATAGCATAAACTAGACTTATAAAAACTAATTTTGGCAATTTTGGAGATAGAGTAATGAACTGGCGTGCACT (double strand) [cymA promoter footprinting probe]”, the binding result is listed as “binds”.
